The source of these data is PMC6274753.

No constants are given. Whether binding was seen depends on the method and setting. In cells and extracts the contact can be indirect. Binding can be weak; no strength is given. Sequences can lack the tags named with a protein.

The target of this experiment is T1, FLAG-TBC1D21 (UniProt Q8IYX1).
T1 sequence: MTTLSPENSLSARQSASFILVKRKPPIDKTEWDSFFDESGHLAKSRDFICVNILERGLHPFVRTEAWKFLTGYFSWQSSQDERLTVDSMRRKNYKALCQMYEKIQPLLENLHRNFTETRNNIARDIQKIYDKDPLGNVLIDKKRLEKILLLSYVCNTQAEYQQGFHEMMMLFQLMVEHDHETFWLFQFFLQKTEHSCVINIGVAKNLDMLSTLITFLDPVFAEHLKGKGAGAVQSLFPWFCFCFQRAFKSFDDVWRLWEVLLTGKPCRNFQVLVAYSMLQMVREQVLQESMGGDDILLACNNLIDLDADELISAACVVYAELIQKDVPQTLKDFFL
Description: co-IP; lysate (4 mg in 1 mL) of NT2D1 cells co-transfected with pFLAG-TBC1D21 and pEGFP-Rap1; precleared with protein A/G beads; anti-FLAG antibody or control IgG overnight at 4 °C; washed twice with PBS; immunoblot with anti-FLAG and anti-EGFP. Background: Immunoblotting shows a protein as a band on a membrane.

Take Rap1-GFP: the binding result is on record as “binds”.
